PubChem BioAssay AID504791 | Drosophila RNAi Screening Center | 2011

Screen: 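Factors in Argonaute-based small RNA production and activity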 (primary screen)
Cell system: Drosophila S2-derived reporter cells
Reagent: long dsRNA against Drosophila genes, about 150-250 ng dsRNA per well (siRNA assay); about 80-120 ng (miRNA assay)
Duration: about 5 days (siRNA assay); about 4 days (miRNA assay)
Treatment: copper sulfate induction of reporters: 25 µM (siRNA assay); 200 mM stated (miRNA assay), 1-2 days before reading
Measurement: 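Per-well ratio of Renilla over firefly light, expressed relative to that plate's average ratio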
Units: stable assay Renilla, run 1 in luminescence; stable assay firefly, run 1 in luminescence
Call rule: 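First-pass picks had plate-scaled ratios over 1.5 for the siRNA assay, over 1.6 for the miRNA assay, or under 0.6; two distinct dsRNAs had to score alike on retest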
In all, the deposit lists about 23,000 reagents; below is an unselected part of those with a known target gene and a result. Over the whole deposit, 199 (0.86%) got an active call. 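Plate-scaled ratios behind the calls are not deposited; printed light signals are raw; many rows marked increased or decreased are still called inactive.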 Names joined by + are all predicted targets of the reagent. Reagent sequences are not shown. Not given: the direction of the score.

With Moca-cyp [DRSC15364], what was measured?
stable assay Renilla, run 1: 7786; stable assay firefly, run 1: 4.77e5; call: inactive

How did the screen score CG15387 [DRSC00401]?
stable assay Renilla, run 1: 7248; stable assay firefly, run 1: 3.97e5; call: inactive

What did the screen give for b6 [DRSC18740]?
stable assay Renilla, run 1: 6535; stable assay firefly, run 1: 4.76e5; call: inactive

How did the screen score udt (undicht) [DRSC14214]?
stable assay Renilla, run 1: 7342; stable assay firefly, run 1: 4.12e5; call: inactive

With CG2162 [DRSC08557], how do the results read?
stable assay Renilla, run 1: 8845; stable assay firefly, run 1: 3.74e5; call: inactive

For Eig71Eg (Ecdysone-induced gene 71Eg) [DRSC11154], how do the results read?
stable assay Renilla, run 1: 7215; stable assay firefly, run 1: 4.87e5; call: inactive

How did the screen score Ero1L (Endoplasmic reticulum oxidoreductin-1-like) [DRSC08660]?
stable assay Renilla, run 1: 7581; stable assay firefly, run 1: 3.79e5; call: inactive

For CG7785 [DRSC16311], how do the results read?
stable assay Renilla, run 1: 7303; stable assay firefly, run 1: 3.20e5; call: inactive

With CG15382 [DRSC00397], how do the results read?
stable assay Renilla, run 1: 8959; stable assay firefly, run 1: 5.09e5; call: inactive

For sordd2 + sordd1 [DRSC20136], what was measured?
stable assay Renilla, run 1: 9779; stable assay firefly, run 1: 6.35e5; call: inactive

With sordd2 + sordd1 [DRSC28444], how do the results read?
miRNA reporter change: reporter ratio raised past the hit cutoff; call: inactive

What did the screen give for Cdc2rk (Cdc2-related kinase) [DRSC07590]?
stable assay Renilla, run 1: 6279; stable assay firefly, run 1: 3.89e5; call: inactive

Individual results from above:
For “stable assay firefly, run 1”, Eig71Eg (Ecdysone-induced gene 71Eg) [DRSC11154] shows 4.87e5
Under “stable assay Renilla, run 1”, CG7785 [DRSC16311] shows 7303
